Screening data, single-dose tests

Amino acid sequences for entries named in this document (tags omitted). Residues count along the entry.
UniProt Q8IDJ8, 1-583: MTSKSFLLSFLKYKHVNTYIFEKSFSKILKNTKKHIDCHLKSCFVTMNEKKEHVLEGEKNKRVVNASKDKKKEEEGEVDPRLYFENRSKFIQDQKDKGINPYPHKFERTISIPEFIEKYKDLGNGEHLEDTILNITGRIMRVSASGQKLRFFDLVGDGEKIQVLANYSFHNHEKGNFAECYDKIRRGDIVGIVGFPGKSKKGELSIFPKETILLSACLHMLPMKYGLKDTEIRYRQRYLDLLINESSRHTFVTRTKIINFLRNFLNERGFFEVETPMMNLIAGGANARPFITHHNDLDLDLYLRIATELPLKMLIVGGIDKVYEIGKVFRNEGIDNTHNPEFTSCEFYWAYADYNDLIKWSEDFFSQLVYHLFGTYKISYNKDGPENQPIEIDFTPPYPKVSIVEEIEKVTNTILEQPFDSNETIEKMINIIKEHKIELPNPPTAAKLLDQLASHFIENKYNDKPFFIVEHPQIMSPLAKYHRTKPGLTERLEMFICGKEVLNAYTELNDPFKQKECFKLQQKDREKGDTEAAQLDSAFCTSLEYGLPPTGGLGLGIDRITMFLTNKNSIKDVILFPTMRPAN
UniProt P9WFT3, whole entry: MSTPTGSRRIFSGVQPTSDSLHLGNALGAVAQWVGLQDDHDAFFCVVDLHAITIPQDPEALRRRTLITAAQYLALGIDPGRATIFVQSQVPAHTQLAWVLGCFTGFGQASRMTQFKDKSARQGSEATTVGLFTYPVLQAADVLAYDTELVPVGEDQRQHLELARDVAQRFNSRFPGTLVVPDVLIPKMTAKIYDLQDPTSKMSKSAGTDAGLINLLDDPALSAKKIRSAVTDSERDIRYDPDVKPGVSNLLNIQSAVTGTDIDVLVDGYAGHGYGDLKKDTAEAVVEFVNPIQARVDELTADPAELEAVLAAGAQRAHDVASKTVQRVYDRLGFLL

PfKRS1: 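Enzyme assay of the cytosolic lysyl-tRNA synthetase in 384-well plates, read by luminescence. Target: Lysine-tRNA ligase, Plasmodium falciparum 3D7 (UniProt Q8IDJ8). Compounds at 30 µM. Higher reads as stronger inhibition, judged from the few compounds that gave an IC50. Of about 69,000 compounds tested this way, about 49 (0.071%) reached 50% or more in at least one test.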
MtTrpRS: 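Tryptophan-tRNA ligase, Mycobacterium tuberculosis (UniProt P9WFT3). Enzyme assay of tryptophanyl-tRNA synthetase; the read-out is not stated. Tested at 10 µM. Direction is not recorded; retested compounds ran higher, which suggests that high means inhibition. Of about 65,000 compounds tested this way, about 64 (0.098%) reached 50% or more in at least one test.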
Leishmania in macrophages: 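Cell assay of Leishmania donovani living inside macrophages; the read-out is not stated. Compounds at 30 µM. Direction is inferred from retests: higher values go with stronger inhibition. About 69,000 compounds were tested under these conditions; 1.5% (about 1,000) showed 50% or more at least once.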

Each number is a percent effect as filed.
The controls that fix the scale are not given in the record; negative values are as filed.
Compounds were drawn at random from those tested, without regard to their results.
Two or more numbers in one place are separate tests of the same structure; such repeats can differ widely.
A dash means the value is not listed here; it may have been measured.

| Compound | PfKRS1 | MtTrpRS | Leishmania in macrophages |
|---|---|---|---|
| `CCCc1cc(C(=O)N(Cc2cccnc2)Cc2cccnc2)[nH]n1` | -1.719 | 2.119 | 20.8 |
| `[H][C@@]12C[C@@H](Oc3cccnc3)CN1CCN(C(=O)c1ccncc1)C2` | - | - | 27.11 |
| `CCOCC(=O)N1CCC2(CC1)CN(Cc1cccnc1)C(=O)CO2` | 9.567 | -3.814 | -0.7285 |
| `COc1ccccc1C1SCC(=O)Nc2c1c(=O)[nH]n2C1CCOCC1` (stereo not given) | 3.491 | -0.6303 | -3.445 |
| `CC(NC(=O)N(C)Cc1ccncc1)c1nncn1C` (stereo not given) | 0.8326 | 1.896 | -6.111 |
| `Cc1cnn(CC2CCCN2C(=O)c2n[nH]c3ccccc23)c1` (stereo not given) | 2.376 | -1.168 | 1.211 |
| `O=C(N[C@H]1COC[C@@H]1N1CCCC1)c1c[nH]nc1C1CCCCC1` | 3.461 | 5.093 | 22.59 |
| `CCN(CCCc1ccccc1C)S(C)(=O)=O` | 4.491 | -10.15 | 17.7 |
| `COc1ccccc1Cc1cncc(N2CC(C(=O)O)C2)n1` | 2.476 | -7.049 | - |
| `COc1cc(C2SCC(=O)Nc3[nH]ncc32)cc(OC)c1OC` (stereo not given) | 7.223 | 0.678 | 56.1 |
| `O=C(O)C(F)(F)F.[H][C@@]12COC[C@]1([H])[C@H](OCc1csc(C)n1)CN2Cc1nccs1` | - | - | -11.88 |
| `O=c1ccc(-n2ccnc2)nn1CCNS(=O)(=O)c1ccc(Cl)s1` | 7.119 | 1.596 | -1.591 and 2.298 |
| `Cc1nc(CN2CC3(CCN(c4ncc(F)cn4)C3)CC2=O)cs1` (stereo not given) | -2.782 | -1.654 | - |
| `CC(C(=O)NCc1ccc(N2CCCCCC2)nc1)n1cncn1` (stereo not given) | -1.096 | -7.319 | 32.53 |
| `[H][C@@]12CN(C(=O)c3cnc(C)cn3)C[C@@]1([H])N(CC1CCCC1)C(=O)CO2` | - | - | -5.713 |
| `O=C(NC1CC1)N1Cc2[nH]nc(COCC3CC3)c2C1` | 1.88 | -3.267 | 17.38 and -2.198 |
| `CN1CCCC(N2CCN(c3cc(C(F)(F)F)ccn3)CC2)C1` (stereo not given) | -2.742 | -4.175 | -8.649 |
| `COc1ccc2c(c1)CCN(CCC(=O)NC1CCCCC1)CC2` | -0.4625 | -4.102 | 18.36 |
| `COCC(=O)N1CCC(c2cccc(Cc3ccc(F)cc3)n2)CC1` | 0.2296 | -1.421 | -4.965 |
| `CCN(CC)CCSc1nnc(N2CCN(c3ccc(F)cc3)CC2)s1` | 0.7041 | -1.814 | 22.31 |
| `CNC(=O)[C@@H](C1CCCCC1)N1CCC[C@H]1C(=O)NC1CC1` | 4.489 | -1.732 | 6.865 |
| `CS(=O)(=O)NCCNC(=O)C1(c2cccc(Cl)c2)CC1` | 8.478 | -1.137 | 17.95 |
| `Cc1cc(C)c(CNC(=O)N2CCN(c3nccs3)CC2)c(=O)[nH]1` | -0.1868 | 18.82 | -18.62 |
| `COc1cccc(-c2ncc(CN3CC[C@H](CO)[C@@H](O)C3)s2)c1` | -0.8581 | -5.592 | 10.25 |
| `CN(Cc1ccsc1)C(=O)Nc1ccc(N2CCCC2)nc1` | 0.8156 | -5.272 | 10.9 |
| `NC(=O)C1CCN(CCc2ccc(NCc3ccsc3)cc2)CC1` | 3.535 | 1.687 | 8.052 |
| `Cn1cnnc1C1CCCN(C(=O)NCc2ccccc2)C1` (stereo not given) | 6.053 | 2.143 | -17.14 |
| `NCC1Cn2nnc(-c3cccc(F)c3)c2CO1` (stereo not given) | -1.663 | 1.74 | 14.67 |
| `O=C(NC1(c2nccs2)CCCC1)c1cc(C2CC2)on1` | 3.163 | -5.211 | -29.2 |
| `O=C(NCC(=O)N1CCCCC1)c1ccoc1` | 6.141 | -2.861 | -16.27 |
| `Cc1cc(O)nc(C2CN(CC3(O)CCOCC3)CCO2)n1` (stereo not given) | 1.732 | 5.333 | 12.98 |
| `[H][C@@]12CN(Cc3ccccc3SC)C[C@]1(C(=O)O)CN(CC1CC1)C2=O` | - | - | 15.18 |
| `COc1ccc(C)cc1CCNS(C)(=O)=O` | 3.266 | -1.135 | 31.09 |
| `CC(C)CNC(=O)[C@H]1C[C@@H]2CN(C(=O)NCCc3ccccc3)C[C@H]1O2` | 2.974 | -0.1744 | - |
| `O=C(Cn1cc(-c2ccccc2)cn1)NC(C1CC1)C1CC1` | 0.7714 | -0.4259 | 23.08 |
| `COc1ccc(-c2cnc3n2CCNC32CCN(S(C)(=O)=O)CC2)cc1` | 1.002 | -4.207 | 0.4452 |
| `CCc1n[nH]c(C2CN(C(=O)c3ccnc(C4CC4)n3)CCO2)n1` (stereo not given) | 1.03 | -0.8777 | 4.222 |
| `[H][C@@]12C[C@H](C(=O)NC)[C@@]([H])(CN(c3ncc(CC)cn3)C1)O2` | - | - | 11.81 |
| `COC(=O)N1CCC(Oc2ccc(C(=O)NCCN(C)C)cc2Cl)CC1` | 1.591 | 8.179 | -10.67 |
| `COc1ccc(C2=CCN(C(=O)C3CCCN(C(N)=O)C3)CC2)cc1` (stereo not given) | 0.09575 | 1.852 | 28.72 |
| `CC(C)NC(=O)CCC(=O)N1CCC(c2noc3cc(F)ccc23)CC1` | 3.446 | 5.376 | 3.665 |
| `O=C1CC(c2ccccc2)c2sc(C(=O)O)c(-c3ccccc3)c2N1` (stereo not given) | 3.338 | 2.349 | 32.79 |
| `CCc1nnc2n1CCN(c1nc3ccccc3o1)C2` | -0.4999 | -3.367 | 39.07 |
| `[H][C@]12CC[C@]([H])(CN(Cc3ccccc3)C1)N(C(=O)Nc1ccccc1)C2` | - | - | 23.24 |
| `CCC1(C(=O)O)CCCN(CCOCc2ccccc2)C1` (stereo not given) | -3.278 | -2.055 | 12.22 |
| `Cc1cc(N2CCC3(CC2)C(C(=O)O)CC(=O)N3C)nc2ccccc12` (stereo not given) | 6.369 | 0 | 12.53 |
| `O=C(CC1CC1)N1CCC2(COCc3cnc(-c4ccccc4)nc32)C1` (stereo not given) | 11.26 | 4.739 | 4.848 |
| `CS(=O)(=O)N1CCc2sc(C(=O)NCc3ccccc3)cc21` | 0.7076 | -5.94 | -6.21 |
| `Cc1ccc2[nH]c(CN(C)Cc3ccccc3C(=O)O)nc2c1` | 2.647 | 2.106 | 25.21 |
| `COc1cc2cc(C(=O)O)n(C)c2cc1OC` | 1.644 | 0.603 | -14.23 |
| `Brc1ccc(C2(CNCc3cc[nH]c3)CCOCC2)cc1` | 0 | 0.9082 | -4.258 |
| `Cc1nn(C)c(C)c1-c1ccc(=O)n(C(C)C(=O)NC(C)(C)C)n1` (stereo not given) | 1.019 | -1.319 | -7.983 |
| `CCOc1ccc2cc(C(=O)N3CCn4c(CC)nnc4C3)[nH]c2c1` | 0.2897 | 3.797 | -8.969 |
| `CC1(C)CN(Cc2nnc(-c3cccnc3)o2)CC[C@]1(C)O` | -0.229 | 15.61 | -2.76 |
| `CCn1c(C2CCN(C(=O)c3cc(Cl)no3)CC2)nn(C)c1=O` | -2.353 | -3.312 | -19.15 |
| `COCCSc1ccc(-n2ccnc2)nn1` | 5.783 | -1.183 | -2.091 |
| `CCOc1ncccc1CNC(=O)c1c(C)oc(C)c1C` | 1.988 | -7.592 | 16.13 |
| `CN1CCCC(NC(=O)c2ccc(C(=O)c3cc[nH]c3)cc2)C1` (stereo not given) | -0.1833 | -9.814 | 11.33 |
| `CC(C)(C)OC(=O)Cn1cccc(S(=O)(=O)N2CCCCCC2)c1=O` | 4.423 | 2.971 | 29.02 |
| `O=C1COc2c(cccc2C(=O)N2CCCCC2Cn2cccn2)N1` (stereo not given) | 6.879 | 2.424 | 6.341 |

The values are deposited in ChEMBL (CHEMBL3988442, “University of Dundee, Small-Polar-MMV Screening Library” (2021)).